These are yes or no findings as the source states them, for the method shown. Some binding calls cover weakened binding; strength is not graded here.
Target: SPT6L (SPT6-like), two-hybrid bait in pGBKT7 (Arabidopsis) (UniProt A8MS85)
Experiment: two-hybrid

Amino acid sequences for entries named in this document (tags omitted).
UniProt A8MS85: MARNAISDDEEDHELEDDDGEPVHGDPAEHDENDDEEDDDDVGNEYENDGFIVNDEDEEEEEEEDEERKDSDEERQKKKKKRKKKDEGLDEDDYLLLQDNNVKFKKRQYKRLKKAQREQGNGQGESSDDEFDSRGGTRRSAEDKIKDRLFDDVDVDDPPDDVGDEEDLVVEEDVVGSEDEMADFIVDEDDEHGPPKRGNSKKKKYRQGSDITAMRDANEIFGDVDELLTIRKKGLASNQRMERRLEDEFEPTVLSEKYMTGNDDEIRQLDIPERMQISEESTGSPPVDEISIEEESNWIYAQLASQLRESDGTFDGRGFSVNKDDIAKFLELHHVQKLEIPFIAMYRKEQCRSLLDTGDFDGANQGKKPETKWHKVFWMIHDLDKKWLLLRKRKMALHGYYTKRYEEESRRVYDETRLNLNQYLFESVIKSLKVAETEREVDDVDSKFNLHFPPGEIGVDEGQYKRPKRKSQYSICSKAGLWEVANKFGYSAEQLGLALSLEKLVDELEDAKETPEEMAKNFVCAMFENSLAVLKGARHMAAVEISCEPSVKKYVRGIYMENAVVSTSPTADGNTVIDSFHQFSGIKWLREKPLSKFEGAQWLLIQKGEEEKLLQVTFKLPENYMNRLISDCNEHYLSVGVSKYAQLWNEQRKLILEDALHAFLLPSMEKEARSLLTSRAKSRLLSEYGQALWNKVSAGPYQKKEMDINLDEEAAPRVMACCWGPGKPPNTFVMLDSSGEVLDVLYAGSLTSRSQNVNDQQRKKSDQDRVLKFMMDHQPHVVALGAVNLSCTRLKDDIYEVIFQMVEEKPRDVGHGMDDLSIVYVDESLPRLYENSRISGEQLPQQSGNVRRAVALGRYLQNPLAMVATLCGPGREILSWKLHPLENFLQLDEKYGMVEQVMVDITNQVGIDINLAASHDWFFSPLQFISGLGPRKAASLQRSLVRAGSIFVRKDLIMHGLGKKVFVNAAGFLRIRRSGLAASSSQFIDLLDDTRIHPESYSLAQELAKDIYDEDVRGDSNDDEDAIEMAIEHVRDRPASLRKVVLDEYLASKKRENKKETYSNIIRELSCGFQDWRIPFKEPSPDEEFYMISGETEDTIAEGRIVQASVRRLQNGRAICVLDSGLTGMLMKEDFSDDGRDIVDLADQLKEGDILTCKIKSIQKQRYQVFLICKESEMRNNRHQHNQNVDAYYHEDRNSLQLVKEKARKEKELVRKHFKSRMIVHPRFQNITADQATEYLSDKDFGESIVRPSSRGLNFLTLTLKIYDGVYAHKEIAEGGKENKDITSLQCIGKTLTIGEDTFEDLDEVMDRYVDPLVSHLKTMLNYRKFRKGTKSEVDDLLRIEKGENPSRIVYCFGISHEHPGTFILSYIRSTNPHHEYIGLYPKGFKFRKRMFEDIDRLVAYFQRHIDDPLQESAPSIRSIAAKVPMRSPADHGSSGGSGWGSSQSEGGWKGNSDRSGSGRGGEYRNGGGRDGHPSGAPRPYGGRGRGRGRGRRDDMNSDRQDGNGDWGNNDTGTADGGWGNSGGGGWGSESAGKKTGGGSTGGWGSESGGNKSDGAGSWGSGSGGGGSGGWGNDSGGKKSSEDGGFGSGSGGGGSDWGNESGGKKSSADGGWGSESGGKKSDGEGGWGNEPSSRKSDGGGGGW

| binding | Binder |
| --- | --- |
| binds | SPT5L, Pol V associated factor, two-hybrid prey in pGADT7 (protein, UniProt F4JW79 1-1493) MDRKGKGKQVAGSDSYSGGQKRKNSVEFRDEGLRIKKRKNPEVLQFFEESAEVGYYGGSSDEDDDGLGFLNDMEDEPEVEESSKAGKGEKGKSSFVFPKEEDLNEEEFDRIMEERYKPGSGFLRYADDDIKDAIEMDALAPTSKDPPIWKVKCAIGRERRSVFCLMHKFVELRKIGTKLEIISVFSVDHVKGFIFIEADKEHDVLEACKSLVGIYATRMVLLPKAETPNLLTVQKKTKKVSEGTWARVKNGKYKGDLAQIVAVSDTRNKALIKLIPRIDIQALTQKYGGGVTVQKGQTPAPRLISSSELEEFRPLIQVRRDRDTGITFEHLDSLMLKDGYLYKKVSLDSISSWGVIPTKDELLKFTPVDRKETGDVEWISEIYGEERKKKILPTCREGGKGEGSGGGKGEGSGGGKGEGSRGGKGEGSSDFKSESSYELYNLVCFSRKDFGLIVGVDDKGDGYKVLKEGIDGPVVVTVGKKEMQNGPFDSKFTALDLNKKQISVNDVVKISKGPSEGKQGVVRQVYRGIIFLYDESEEENGGYFCCKSQSCEKVKLFTEESNEKTGGFDGTAFEDFVSSPKSPLSPEKEWQPRERYNSSNQGDIGSTYSIGQKLRIRVGPLKGYLCRVIALRYSDVTVKLDSQHKIFTVKSEHLAEVRDRNTVLSTSGDAGTGSFQPFGMLGTESSTGDWAIGAGTSSEGGNWNIGGPSTDSHESLNIERNMVQLCREKNPWGGSKPTSDVSPTVADDNTSAWANAAAENKPASASDQPGGWNPWGKTPASEAGTVSGWGDTSASNVEASSWEKQGASTSNVADLGSWGTHGGSSGGNKQDEDSVWGKLCEASESSQKKEESSWGKKGGSDGESSWGNKDGNSSASKKDGVSWGQQDKGSDESKGGSAWSNQCGDFGSGKKKDGSSGWNKSAEDSNANSKGVPDWGQPNDGSSWGKKGDGAASWGKKDDGGSWGKKDDGNKDDGGSSWGKKDDGQKDDGGSSWEKKFDGGSSWGKKDDGGSSWGKKDDGGSLWGKKDDGGSSWGKEDDGGSLWGKKDDGESSWGKKDDGESSWGKKDDGGSSWGKKDEGGYSEQTFDRGGRGFGGRRGGGRRGGRDQFGRGSSFGNSEDPAPWSKPSGGSSWGKQDGDGGGSSWGKENDAGGGSSWGKQDNGVGSSWGKQNDGSGGGSSWGKQNDAGGGSSWGKQDSGGDGSSWGKQDGGGDSGSAWGKQNNTSGGSSWGKQSDAGGGSSWGKQDGGGGGSSWGKQDGGGGSGSAWGKQNETSNGSSWGKQNDSGGGSSWGKQDGGGGGSSWGKQNDGGGGSSWGKQGDGGSKPWNEHSGGGRGFGERRGGGGFRGGRNQSGRGGRSFDGGRSSSWKTDNQENTWKSDQSGGSDWKKGWGEDSNNSKPSGSSAGGCAGNWPSWDTNSKKETNDKPGDDSKSAWGTSNDQVNTDNNNDSWNKKPNNDVGTSGEADNAWGGKTNAVAPSPSGSAAWGTGDKKTGW |
| binds | NRPE4, subunit of Pol V, two-hybrid prey in pGADT7 (protein, UniProt Q6DBA5 1-205) MSEKGGKGLKSSLKSKDGGKDGSSTKLKKGRKIHFDQRTPPANYKILNVSSDQQPFQSSAAKCGKSDKPTKSSKNSLHSFELKDLPENAECMMDCEAFQILDGIKGQLVGLSEDPSIKIPVSYDRALAYVESCVHYTNPQSVRKVLEPLKTYGISDGEMCVIANASSESVDEVLAFIPSLKTKKEVINQPLQDALEELSKLKKSE |
| binds | NRPE7, subunit of Pol V, two-hybrid prey in pGADT7 (protein, UniProt A6QRA1 1-178) MFLKVQLPWNVMIPAENMDAKGLMLKRAILVELLEAFASKKATKELGYYVAVTTLDKIGEGKIREHTGEVLFPVMFSGMTFKIFKGEIIHGVVHKVLKHGVFMRCGPIENVYLSYTKMPDYKYIPGENPIFMNEKTSRIQVETTVRVVVIGIKWMEVEREFQALASLEGDYLGPLSEE |

Source: doi:10.1101/2024.01.09.574790
